From publication PMC11208599
No constants are given. Whether binding was seen depends on the method and setting. In cells and extracts the contact can be indirect. Some results given as binding are weak or reduced against the parent protein; the word gives no strength. For some assays here: Sequences can lack the tags named with a protein.

Protein sequences, listed by entry. Tags and fused reporters are not part of them.
UniProt P42224: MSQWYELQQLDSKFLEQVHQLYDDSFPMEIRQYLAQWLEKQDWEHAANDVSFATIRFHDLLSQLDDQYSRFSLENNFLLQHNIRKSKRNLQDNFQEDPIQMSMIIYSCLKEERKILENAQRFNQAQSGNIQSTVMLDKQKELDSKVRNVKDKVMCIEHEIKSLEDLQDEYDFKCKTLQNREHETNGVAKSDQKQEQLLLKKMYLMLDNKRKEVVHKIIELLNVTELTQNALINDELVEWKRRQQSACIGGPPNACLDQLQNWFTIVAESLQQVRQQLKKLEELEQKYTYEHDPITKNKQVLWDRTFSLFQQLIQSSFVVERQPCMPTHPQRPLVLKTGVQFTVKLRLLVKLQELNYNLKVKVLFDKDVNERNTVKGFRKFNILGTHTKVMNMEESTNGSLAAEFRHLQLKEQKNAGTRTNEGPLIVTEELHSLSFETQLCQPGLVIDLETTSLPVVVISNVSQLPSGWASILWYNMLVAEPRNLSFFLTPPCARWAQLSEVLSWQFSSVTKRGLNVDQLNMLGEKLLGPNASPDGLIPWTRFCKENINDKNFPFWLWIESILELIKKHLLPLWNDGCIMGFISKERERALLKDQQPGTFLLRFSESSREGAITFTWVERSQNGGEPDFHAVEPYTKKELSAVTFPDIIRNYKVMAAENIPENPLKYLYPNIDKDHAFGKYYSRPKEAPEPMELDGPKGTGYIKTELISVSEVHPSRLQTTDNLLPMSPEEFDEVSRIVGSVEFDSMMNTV

Experiments:
[1] = target: T1, TNFAIP3 interacting protein 3 (TNIP3), human, full-length construct expressed in HEK293T cells (human) (UniProt Q96KP6); assay: co-IP; HEK293T cells transfected with the indicated plasmids
T1 sequence: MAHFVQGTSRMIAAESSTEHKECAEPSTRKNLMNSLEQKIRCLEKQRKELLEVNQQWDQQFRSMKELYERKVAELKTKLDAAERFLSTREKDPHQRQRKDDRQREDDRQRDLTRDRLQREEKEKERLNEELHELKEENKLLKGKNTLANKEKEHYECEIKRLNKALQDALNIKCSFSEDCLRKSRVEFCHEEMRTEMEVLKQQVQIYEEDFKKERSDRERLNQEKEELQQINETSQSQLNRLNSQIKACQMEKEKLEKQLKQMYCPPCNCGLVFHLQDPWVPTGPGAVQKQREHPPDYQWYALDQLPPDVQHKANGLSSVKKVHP

[2] = target: T2, TNIP3 of the GST pull-down assay (UniProt Q96KP6); assay: pull-down; GST pull-down; purified GST used as a control; which partner carried GST is not told
T2 sequence: T1 sequence

signal transducer and activator of transcription 1 (STAT1), human, full-length construct expressed in HEK293T cells (from UniProt P42224 1-750)
binding [1]: binds

STAT1 of the GST pull-down assay (from UniProt P42224 1-750)
binding [2]: binds
